# Measurements published in article PMC2901339.
# The chains behind the UniProt entries cited, without tags or fusion partners. Where a name states a change or a piece, a line headed by the entry shows the natural chain unless it says otherwise. A line that says so, or that is headed by a name, gives the form on record, which may keep a tag or linker.
# UniProt P84078: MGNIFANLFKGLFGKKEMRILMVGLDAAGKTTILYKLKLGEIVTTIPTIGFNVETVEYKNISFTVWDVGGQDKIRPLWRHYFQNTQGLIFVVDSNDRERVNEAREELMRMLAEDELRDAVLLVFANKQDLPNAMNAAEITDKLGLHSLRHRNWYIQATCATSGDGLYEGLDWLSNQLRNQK
# UniProt Q9EPJ9: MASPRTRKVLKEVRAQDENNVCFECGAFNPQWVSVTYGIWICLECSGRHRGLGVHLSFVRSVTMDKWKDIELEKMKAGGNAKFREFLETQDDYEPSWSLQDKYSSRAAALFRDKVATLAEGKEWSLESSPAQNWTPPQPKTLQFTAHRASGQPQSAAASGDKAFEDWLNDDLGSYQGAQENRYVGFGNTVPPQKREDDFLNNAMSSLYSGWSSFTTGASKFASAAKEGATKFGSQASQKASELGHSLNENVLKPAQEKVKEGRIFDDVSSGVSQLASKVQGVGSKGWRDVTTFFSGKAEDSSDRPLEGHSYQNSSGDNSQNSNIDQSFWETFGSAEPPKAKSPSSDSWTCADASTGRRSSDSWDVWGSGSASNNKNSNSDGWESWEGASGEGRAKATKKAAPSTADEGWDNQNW
# SERCA2a, endogenous, mouse heart (O55143-2, form named): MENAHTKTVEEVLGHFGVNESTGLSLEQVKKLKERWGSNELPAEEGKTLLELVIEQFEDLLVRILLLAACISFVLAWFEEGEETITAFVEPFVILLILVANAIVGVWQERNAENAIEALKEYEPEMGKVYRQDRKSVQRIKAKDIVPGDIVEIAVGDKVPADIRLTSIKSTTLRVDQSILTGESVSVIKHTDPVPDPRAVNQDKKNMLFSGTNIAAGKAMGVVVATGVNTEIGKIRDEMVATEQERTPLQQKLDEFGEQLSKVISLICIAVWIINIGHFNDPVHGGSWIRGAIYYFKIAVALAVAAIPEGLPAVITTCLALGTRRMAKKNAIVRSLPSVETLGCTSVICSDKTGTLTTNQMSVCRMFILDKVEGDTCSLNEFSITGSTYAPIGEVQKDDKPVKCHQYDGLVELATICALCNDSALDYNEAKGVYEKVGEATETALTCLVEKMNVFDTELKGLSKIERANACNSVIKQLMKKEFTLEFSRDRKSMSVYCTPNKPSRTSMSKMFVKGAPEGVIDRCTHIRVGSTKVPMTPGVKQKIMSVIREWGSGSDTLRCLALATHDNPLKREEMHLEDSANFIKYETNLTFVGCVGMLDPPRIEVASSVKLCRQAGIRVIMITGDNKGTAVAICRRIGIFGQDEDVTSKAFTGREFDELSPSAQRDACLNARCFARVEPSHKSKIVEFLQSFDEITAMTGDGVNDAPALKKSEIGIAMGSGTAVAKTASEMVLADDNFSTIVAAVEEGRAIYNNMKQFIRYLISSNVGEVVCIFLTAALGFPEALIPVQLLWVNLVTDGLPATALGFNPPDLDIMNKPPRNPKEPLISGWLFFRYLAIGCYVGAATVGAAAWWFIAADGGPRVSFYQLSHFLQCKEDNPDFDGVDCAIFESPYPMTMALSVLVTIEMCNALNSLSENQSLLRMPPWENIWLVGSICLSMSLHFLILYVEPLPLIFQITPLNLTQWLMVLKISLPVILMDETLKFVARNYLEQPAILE
# No constants are given. Whether binding was seen depends on the method and setting. In cells and extracts the contact can be indirect. Some results given as binding are weak or reduced against the parent protein; the word gives no strength.
# Molecular target: T1, phospholamban (PLN), endogenous, mouse heart (mouse (endogenous in heart tissue)) (UniProt P61014)
# T1 sequence: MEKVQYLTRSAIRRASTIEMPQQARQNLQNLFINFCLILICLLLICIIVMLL
# Experiment: co-IP; endogenous PLN precipitated from mouse cardiac muscle post nuclear extract with anti-PLN antibody 1D11 (Seize-X Protein A Immunoprecipitation Kit), western blot of the eluate; IgG beads alone as control
row,Substance,binding
1,"ARF1, endogenous, mouse heart (from UniProt P84078 1-181)",binds
2,"ARFGAP1, endogenous, mouse heart (from UniProt Q9EPJ9 1-414)",binds
3,"SERCA2a, endogenous, mouse heart (from UniProt O55143-2 1-998)",binds
